Test results as given in the supplement of paper PMC11732987, “Enantioselective OTUD7B fragment discovery through chemoproteomics screening and high-throughput optimisation” (Communications Chemistry, 2025).
This is one part of the list. The data scatter; read single values as rough.

The chains behind the UniProt entries cited, without tags or fusion partners. Where a name states a change or a piece, a line headed by the entry shows the natural chain unless it says otherwise. Residues count along the entry.
UniProt Q86WW8: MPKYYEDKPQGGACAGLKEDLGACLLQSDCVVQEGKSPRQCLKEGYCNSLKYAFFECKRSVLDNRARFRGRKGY
UniProt Q8WUD6: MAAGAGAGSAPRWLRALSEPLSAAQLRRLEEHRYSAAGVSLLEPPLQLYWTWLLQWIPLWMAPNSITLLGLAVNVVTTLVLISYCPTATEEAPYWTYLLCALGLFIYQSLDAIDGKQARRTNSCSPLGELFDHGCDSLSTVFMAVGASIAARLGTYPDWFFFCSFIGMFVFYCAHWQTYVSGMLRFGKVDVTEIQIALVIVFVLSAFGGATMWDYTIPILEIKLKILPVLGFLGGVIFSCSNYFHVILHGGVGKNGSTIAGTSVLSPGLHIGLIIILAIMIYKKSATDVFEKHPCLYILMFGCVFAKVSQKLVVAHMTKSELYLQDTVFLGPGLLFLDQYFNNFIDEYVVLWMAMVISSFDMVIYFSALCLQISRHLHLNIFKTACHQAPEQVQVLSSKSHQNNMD
UniProt P21964: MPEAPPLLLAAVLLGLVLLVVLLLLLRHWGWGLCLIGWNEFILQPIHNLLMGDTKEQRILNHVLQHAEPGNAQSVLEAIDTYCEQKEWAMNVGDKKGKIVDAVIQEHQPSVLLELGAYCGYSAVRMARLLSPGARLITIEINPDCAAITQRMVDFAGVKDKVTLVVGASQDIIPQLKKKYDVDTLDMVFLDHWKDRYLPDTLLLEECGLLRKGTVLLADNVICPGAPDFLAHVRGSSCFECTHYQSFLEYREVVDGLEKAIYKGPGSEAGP
UniProt Q8NFW8: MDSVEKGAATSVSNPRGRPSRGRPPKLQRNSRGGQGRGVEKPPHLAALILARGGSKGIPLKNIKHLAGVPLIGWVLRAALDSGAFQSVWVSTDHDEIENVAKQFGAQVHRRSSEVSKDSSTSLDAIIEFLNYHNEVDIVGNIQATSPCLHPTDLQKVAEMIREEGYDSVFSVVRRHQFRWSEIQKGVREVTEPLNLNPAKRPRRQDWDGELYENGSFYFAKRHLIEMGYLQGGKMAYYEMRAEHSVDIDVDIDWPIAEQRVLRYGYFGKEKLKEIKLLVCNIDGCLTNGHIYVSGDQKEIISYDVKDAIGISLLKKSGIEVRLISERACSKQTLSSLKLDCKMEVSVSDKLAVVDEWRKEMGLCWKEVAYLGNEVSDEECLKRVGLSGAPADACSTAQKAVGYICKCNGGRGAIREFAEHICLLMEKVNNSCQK
UniProt P57737: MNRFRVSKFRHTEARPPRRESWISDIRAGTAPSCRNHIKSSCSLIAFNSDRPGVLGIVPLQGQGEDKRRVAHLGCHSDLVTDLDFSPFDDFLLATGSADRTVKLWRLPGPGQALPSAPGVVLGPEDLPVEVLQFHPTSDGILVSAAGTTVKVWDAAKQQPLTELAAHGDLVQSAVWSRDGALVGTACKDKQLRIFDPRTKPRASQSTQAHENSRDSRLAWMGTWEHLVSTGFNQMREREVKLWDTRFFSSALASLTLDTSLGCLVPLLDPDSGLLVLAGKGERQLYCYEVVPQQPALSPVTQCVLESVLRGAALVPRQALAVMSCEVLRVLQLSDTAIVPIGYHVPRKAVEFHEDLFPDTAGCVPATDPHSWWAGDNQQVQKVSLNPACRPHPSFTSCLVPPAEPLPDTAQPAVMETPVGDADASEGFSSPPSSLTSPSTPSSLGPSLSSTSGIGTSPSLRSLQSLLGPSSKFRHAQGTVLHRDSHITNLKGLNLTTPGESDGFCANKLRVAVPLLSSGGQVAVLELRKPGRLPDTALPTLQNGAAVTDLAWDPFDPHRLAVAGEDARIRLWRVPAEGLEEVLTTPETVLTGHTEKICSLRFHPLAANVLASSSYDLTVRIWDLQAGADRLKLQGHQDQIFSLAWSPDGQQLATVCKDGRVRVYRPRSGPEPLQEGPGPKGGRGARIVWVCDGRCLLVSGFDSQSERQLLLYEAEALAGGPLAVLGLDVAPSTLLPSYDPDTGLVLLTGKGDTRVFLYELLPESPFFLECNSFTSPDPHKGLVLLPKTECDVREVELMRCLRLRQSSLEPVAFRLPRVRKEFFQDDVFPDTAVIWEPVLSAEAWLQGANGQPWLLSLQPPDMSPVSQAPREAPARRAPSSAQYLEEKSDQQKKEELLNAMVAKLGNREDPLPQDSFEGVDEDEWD
UniProt Q7Z460: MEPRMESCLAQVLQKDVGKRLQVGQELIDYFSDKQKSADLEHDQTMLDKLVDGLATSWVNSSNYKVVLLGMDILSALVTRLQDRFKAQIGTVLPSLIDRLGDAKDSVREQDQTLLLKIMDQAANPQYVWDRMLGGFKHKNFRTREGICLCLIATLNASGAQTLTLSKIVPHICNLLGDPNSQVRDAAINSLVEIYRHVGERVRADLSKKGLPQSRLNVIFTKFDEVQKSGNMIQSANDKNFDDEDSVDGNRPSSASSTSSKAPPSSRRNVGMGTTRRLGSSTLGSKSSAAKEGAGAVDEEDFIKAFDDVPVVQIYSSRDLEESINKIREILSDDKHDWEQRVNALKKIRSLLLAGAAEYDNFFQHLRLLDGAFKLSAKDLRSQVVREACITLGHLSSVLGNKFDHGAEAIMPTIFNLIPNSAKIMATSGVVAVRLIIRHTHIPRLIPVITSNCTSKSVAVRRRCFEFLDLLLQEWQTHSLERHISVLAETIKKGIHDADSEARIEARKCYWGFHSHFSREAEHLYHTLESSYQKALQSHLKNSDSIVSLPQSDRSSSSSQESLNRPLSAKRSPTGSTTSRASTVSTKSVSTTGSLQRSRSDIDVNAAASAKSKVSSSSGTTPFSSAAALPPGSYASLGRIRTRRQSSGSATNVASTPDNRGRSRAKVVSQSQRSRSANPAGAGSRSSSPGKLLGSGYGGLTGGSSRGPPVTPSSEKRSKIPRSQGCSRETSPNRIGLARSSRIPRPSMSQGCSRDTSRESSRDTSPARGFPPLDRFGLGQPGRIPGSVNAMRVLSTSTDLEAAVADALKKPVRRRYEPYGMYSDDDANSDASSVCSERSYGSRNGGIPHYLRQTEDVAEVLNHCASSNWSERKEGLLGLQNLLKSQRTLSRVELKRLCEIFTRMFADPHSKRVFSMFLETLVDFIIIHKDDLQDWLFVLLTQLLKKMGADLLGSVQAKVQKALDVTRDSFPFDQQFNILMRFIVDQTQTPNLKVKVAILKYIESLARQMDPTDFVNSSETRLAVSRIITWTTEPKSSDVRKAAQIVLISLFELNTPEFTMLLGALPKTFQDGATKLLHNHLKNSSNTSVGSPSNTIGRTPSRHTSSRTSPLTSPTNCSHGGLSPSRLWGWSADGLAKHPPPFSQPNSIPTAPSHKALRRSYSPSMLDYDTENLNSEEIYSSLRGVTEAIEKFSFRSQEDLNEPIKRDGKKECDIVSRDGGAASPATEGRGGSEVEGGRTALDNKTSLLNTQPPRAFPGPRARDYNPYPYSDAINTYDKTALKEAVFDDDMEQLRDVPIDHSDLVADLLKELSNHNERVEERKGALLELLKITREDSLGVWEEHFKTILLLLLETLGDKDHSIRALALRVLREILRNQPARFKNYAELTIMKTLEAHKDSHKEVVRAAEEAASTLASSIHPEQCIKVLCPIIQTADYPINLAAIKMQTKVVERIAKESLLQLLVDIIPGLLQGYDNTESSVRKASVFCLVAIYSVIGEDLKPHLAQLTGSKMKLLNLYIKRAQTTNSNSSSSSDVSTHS
UniProt Q9UHD1: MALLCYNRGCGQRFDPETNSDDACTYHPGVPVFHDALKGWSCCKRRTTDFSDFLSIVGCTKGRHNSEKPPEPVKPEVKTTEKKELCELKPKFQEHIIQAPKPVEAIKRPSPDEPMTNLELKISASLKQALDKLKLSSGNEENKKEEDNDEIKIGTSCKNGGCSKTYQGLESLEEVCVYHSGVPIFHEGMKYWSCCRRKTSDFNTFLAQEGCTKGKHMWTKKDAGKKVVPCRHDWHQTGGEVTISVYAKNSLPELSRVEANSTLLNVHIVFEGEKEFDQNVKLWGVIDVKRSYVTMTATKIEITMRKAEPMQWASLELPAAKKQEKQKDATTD
UniProt Q14008: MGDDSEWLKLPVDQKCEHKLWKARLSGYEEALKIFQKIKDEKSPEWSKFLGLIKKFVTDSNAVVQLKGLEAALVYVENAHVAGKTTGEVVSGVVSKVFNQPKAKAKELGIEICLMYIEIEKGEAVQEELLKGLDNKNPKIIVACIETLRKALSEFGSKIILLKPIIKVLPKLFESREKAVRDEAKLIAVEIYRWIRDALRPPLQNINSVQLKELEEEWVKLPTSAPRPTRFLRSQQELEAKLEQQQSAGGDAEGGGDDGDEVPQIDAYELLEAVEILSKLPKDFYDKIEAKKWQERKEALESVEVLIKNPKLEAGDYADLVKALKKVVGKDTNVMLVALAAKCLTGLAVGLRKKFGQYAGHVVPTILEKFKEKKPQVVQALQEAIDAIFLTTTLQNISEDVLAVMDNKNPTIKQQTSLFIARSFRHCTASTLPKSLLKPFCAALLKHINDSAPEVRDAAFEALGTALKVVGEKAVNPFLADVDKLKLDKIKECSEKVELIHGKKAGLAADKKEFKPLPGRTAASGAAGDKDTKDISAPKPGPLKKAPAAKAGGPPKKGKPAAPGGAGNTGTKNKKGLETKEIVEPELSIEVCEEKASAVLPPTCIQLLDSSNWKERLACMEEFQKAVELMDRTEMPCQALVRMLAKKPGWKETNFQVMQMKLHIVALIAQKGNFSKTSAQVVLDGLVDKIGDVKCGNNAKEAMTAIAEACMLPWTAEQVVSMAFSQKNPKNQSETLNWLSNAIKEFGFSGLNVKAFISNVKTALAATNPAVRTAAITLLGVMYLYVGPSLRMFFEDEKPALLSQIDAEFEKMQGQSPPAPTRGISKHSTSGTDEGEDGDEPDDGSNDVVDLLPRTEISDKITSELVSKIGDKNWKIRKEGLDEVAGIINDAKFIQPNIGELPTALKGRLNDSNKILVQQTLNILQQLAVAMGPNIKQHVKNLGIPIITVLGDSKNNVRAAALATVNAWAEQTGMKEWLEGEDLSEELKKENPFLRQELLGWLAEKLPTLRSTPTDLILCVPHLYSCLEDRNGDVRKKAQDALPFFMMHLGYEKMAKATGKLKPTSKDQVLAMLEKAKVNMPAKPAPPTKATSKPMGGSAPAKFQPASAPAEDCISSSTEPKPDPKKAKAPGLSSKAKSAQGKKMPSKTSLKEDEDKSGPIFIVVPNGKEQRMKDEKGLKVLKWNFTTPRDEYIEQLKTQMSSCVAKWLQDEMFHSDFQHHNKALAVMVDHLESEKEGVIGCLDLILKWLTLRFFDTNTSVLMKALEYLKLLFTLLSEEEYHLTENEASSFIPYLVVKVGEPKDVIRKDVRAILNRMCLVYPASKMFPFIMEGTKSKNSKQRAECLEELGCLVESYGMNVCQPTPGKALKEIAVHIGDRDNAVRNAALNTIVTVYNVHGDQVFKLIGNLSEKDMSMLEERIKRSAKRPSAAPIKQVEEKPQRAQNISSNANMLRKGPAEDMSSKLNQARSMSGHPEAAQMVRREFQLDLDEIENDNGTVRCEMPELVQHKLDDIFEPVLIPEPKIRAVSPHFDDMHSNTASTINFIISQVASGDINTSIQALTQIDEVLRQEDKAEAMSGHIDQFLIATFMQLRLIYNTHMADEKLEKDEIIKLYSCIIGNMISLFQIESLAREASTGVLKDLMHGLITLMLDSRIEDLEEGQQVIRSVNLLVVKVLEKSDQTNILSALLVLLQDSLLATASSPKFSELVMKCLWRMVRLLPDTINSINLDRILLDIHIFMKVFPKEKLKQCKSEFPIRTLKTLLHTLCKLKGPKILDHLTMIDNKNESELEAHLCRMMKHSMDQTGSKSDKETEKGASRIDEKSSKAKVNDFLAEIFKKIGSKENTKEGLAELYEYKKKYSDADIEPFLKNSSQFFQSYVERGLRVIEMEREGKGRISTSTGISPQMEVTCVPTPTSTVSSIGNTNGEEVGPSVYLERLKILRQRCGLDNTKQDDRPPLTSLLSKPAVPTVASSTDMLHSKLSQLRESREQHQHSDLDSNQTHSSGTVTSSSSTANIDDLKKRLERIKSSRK
UniProt Q5HYK3: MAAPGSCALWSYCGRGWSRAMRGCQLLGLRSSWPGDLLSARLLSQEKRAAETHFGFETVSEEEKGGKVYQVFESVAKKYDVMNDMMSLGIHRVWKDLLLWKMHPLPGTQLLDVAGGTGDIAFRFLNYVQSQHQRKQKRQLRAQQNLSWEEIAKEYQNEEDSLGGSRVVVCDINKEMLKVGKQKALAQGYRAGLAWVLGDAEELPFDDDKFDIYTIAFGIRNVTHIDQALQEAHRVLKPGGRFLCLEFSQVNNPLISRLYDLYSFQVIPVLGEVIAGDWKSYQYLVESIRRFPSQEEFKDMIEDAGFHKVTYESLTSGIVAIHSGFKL
UniProt Q9P000, 153-175: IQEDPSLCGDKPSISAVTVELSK

The targets below were run with ClCC(=O)N[C@H]1CCCc2ccccc12 (assay: log2 mean competition ratio of IA-DTB cysteine labelling (DMSO/compound) (log2 ratio); higher = stronger cysteine engagement by compound). Settings: 50 µM; treatment time: 4 h; cell line lysate: HEK293T.
Experimental: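 IA-DTB competitive cysteine chemoproteomics in HEK293T RIPA lysate. Lysates were treated with compound 29 or 30 at 50 or 200 µM for 4 h, then IA-DTB (500 µM, 1 h), trypsin-digested, NeutrAvidin-enriched and analysed by diaPASEF. Competition ratio = intensity DMSO / intensity compound (n=4 treated, n=64 DMSO); binding: mean log2 CR ≥ 1 and p ≤ 0.05 plus QC filters. Target is the cysteine site.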

Target | log2 mean competition ratio
CIP2A C472 (UniProt Q8TCG1) | 0.207
CLTC C870 (UniProt Q00610) | 0.101
COA5 C14 (UniProt Q86WW8) | 0.182
CNOT4 C175 (UniProt O95628) | -0.466
CHPT1 C386 (UniProt Q8WUD6) | -0.149
COMT C207 (UniProt P21964) | -0.177
CLUAP1 C292 | 0.389
CMAS C394 (UniProt Q8NFW8) | 0.0629
CORO7 C691 (UniProt P57737) | -0.0121
CLASP1 C173 (UniProt Q7Z460) | -0.291
CIP2A C615 (UniProt Q8TCG1) | 0.0281
CHERP C69 (UniProt Q8IWX8) | -0.331
CHORDC1 C86 (UniProt Q9UHD1) | 0.244
CORO7 C505 (UniProt P57737) | 0.581
COG1 C577 (UniProt Q8WTW3) | 0.0707
CKAP5 C493 (UniProt Q14008) | 0.189
COQ5 C170 (UniProt Q5HYK3) | 0.0375
CHD4 C452 | 0.111
COMMD9 C160 (UniProt Q9P000) | -0.113
COMT C145 (UniProt P21964) | -0.53

Same assay, conditions: 200 µM; treatment time: 4 h; cell line lysate: HEK293T

Target | log2 mean competition ratio
CIP2A C472 (UniProt Q8TCG1) | 0.0803
CLTC C870 (UniProt Q00610) | -0.238
COA5 C14 (UniProt Q86WW8) | 0.0996
CNOT4 C175 (UniProt O95628) | -0.0974
CHPT1 C386 (UniProt Q8WUD6) | -0.415
COMT C207 (UniProt P21964) | 0.0986
CLUAP1 C292 | -0.23
CMAS C394 (UniProt Q8NFW8) | -0.0683
CORO7 C691 (UniProt P57737) | 0.0903
CLASP1 C173 (UniProt Q7Z460) | -0.179
CIP2A C615 (UniProt Q8TCG1) | 0.191
CHERP C69 (UniProt Q8IWX8) | 0.0292
CHORDC1 C86 (UniProt Q9UHD1) | -0.0181
CORO7 C505 (UniProt P57737) | -0.0816
COG1 C577 (UniProt Q8WTW3) | -0.237
CKAP5 C493 (UniProt Q14008) | -0.249
COQ5 C170 (UniProt Q5HYK3) | 0.0685
CHD4 C452 | -0.026
COMMD9 C160 (UniProt Q9P000) | -0.494
COMT C145 (UniProt P21964) | -0.0577
